The other results are listed elsewhere or left out. The main result of the screen is listed elsewhere. These columns were measured beside it and carry no call. The list favours compounds with an active or inconclusive main result. Words in brackets tell the shape of the fitted curve; partial curves, single points and poor fits give uncertain potencies.
Experiment: qHTS Assay for Lipid Storage Modulators in Drosophila S3 Cells;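 as to cell number change: cells counted by Cell Tracker Red CMTPX staining in the red channel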
Conditions: BODIPY lipid droplet fluorescence, 18-24 h; for cell number change: measured here: cell count max response, cells fed with added oleic acid
In short: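 Laser-scanning cytometry quantifies lipid droplet accumulation (500–530 nm total intensity; droplet/cell object ratio) in oleic acid-fed (400 uM added) Drosophila S3 cells treated with a concentration series. 20 uM Triacsin C defined 100% inhibition.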

[1] = measured here: lipid fluorescence (Fed channel) AC50, cells fed with added oleic acid
[2] = measured here: cell number channel AC50, cells fed with added oleic acid

Structure (SMILES) | cell number change | AC50 [1] | AC50 [2]
Clc1cccc(Cl)c1CSc1nnc(-c2sccc2-n2cccc2)o1 | 8.77% | 0.0116 µM [falling, full curve, poor fit] | –
Cc1csc(SCC(=O)Nc2cccc3nsnc23)n1 | 54% | 10.3 µM [rising, partial curve] | 7.31 µM [rising, partial curve]
COc1cnc(-c2ccccn2)nc1Oc1ccccc1 | -38% | 6.51 µM [falling, partial curve, poor fit] | 2.91 µM [falling, partial curve]
Cc1cc(C)cc(OCC(=O)OCC(=O)Nc2c(C)n(C)n(-c3ccccc3)c2=O)c1 | – | 5.8 µM [falling, single point] | 0.82 µM [rising, single point]
CCCCOc1ccc(C(NC(=O)OCC)NC(=O)OCC)cc1 | 66.7% | 2.59 µM [rising, single point] | 7.31 µM [rising, partial curve]
Cc1csc(=O)n1CC(=O)OCc1nnc(-c2ccc(Cl)cc2)o1 | – | 0.58 µM [falling, single point] | –
CC1CCCCC12NC(=O)N(CC(=O)NCCc1ccc(S(N)(=O)=O)cc1)C2=O (configuration not stated) | 14.9% | 3.66 µM [rising, single point] | –
Cc1ccc(CN2CCC(n3nccc3NC(=O)C3CCOC3)CC2)cc1C (configuration not stated) | 3.5% | – | –
Cc1cc(=O)[nH]c(N/N=C/c2ccc(OC(=O)c3ccco3)cc2)n1 | -23.6% | 1.03 µM [falling, partial curve] | –
COc1cc(/C=N/NC(=O)c2cc(C)oc2C)ccc1O | 4.07% | 0.00411 µM [rising, full curve, poor fit] | –
COc1ccc(OCC(=O)NNC(=O)c2cc3ccccc3o2)cc1 | – | 23.1 µM [rising, single point] | –
Cn1nnnc1SCC(=O)Nc1cc(S(=O)(=O)N2CCCC2)ccc1Cl | 38.1% | – | –
Cc1nonc1OCCNc1ccc([N+](=O)[O-])cc1[N+](=O)[O-] | 13% | 6.51 µM [falling, single point] | 3.26 µM [falling, single point]
CCOc1cc(Cl)c(S(=O)(=O)NCc2cccnc2)cc1Cl | – | – | 0.651 µM [falling, single point]
CCCCNC(=O)CSc1nnc(-c2ccco2)n1C | 13.5% | – | 6.51 µM [rising, single point]
CC(NC(=O)C12CC3CC(CC(C3)C1)C2)c1ccc2c(c1)OCCO2 (configuration not stated) | -97.1% | 0.651 µM [falling, partial curve, poor fit] | 25.9 µM [falling, partial curve, poor fit]
Cc1ccc(CN2C(=O)/C(=C\c3ccc(C(=O)NCc4cccnc4)cc3)Oc3ccccc32)cc1 | -39.6% | 14.6 µM [falling, partial curve] | 18.4 µM [falling, partial curve]
CCCCOC(=O)Nc1nnc(CC)s1 | 58.6% | – | 18.4 µM [rising, single point]
CCCCCc1ccc(-c2cn(Cc3ccc([N+](=O)[O-])cc3)nn2)cc1 | – | 2.91 µM [rising, single point] | –
Cc1c(CCC(=O)NCC(=O)NCC(=O)O)c(=O)oc2cc3oc4c(c3cc12)CCCC4 | -17.1% | 29.1 µM [falling, single point] | –

Structure (SMILES) | cell number change | AC50 [1] | AC50 [2]
Clc1ccsc1-c1csc(-c2cccnc2)n1 | – | 4.61 µM [rising, full curve] | 2.59 µM [rising, partial curve]
O=C(C1CCN(S(=O)(=O)c2ccccc2)CC1)N1CCN(Cc2ccc3c(c2)OCO3)CC1 | 19.8% | – | 7.31 µM [rising, partial curve, poor fit]
C[C@@H]1O[C@@H](O[C@H]2[C@H](O)[C@@H](O)[C@H](Oc3c(-c4ccc(O)c(O)c4)oc4cc(O)cc(O)c4c3=O)O[C@@H]2CO)[C@H](O)[C@H](O)[C@H]1O | 14.1% | 0.116 µM [falling, full curve, poor fit] | –
CCN(CC(=O)Nc1ccccc1C(F)(F)F)C(=O)C1CCC1 | -18.7% | 0.103 µM [falling, full curve] | –
CC(C)OCCCN(C)C1CCN(S(=O)(=O)c2ccc(-c3cc(C(F)(F)F)no3)s2)CC1 | 4.94% | – | –
COc1ccc([C@H]2CC(=O)C=C(c3ccc(OC)nc3)C2)cc1 | -14.4% | 5.17 µM [falling, single point] | –
O=C(Nc1nnc(-c2ccc(F)cc2)o1)C1CCCN1S(=O)(=O)c1cccs1 (configuration not stated) | -24.5% | – | –
COC(=O)c1ccc(CSc2nc3cc(Cl)ccc3s2)o1 | -12% | – | –
Brc1ccc2[nH]c3c(NCc4ccccn4)ncnc3c2c1 | -14.8% | – | –
CN(C)c1ccc(-c2nc3cc(N)ccc3o2)cc1 | -36.8% | 7.31 µM [falling, single point] | 25.9 µM [falling, partial curve, poor fit]
COc1ccc(CC(=O)Nc2ccc(-c3nnc(-c4ccccc4)o3)cc2)cc1 | – | 6.51 µM [falling, single point] | –
C/C(=N/OCC(=O)NCCCCCCNC(=O)CO/N=C(/C)c1cccs1)c1cccs1 | -50% | 0.116 µM [rising, full curve, poor fit] | 2.06 µM [rising, partial curve]
Cc1cc(Br)ccc1NC(=O)CN(C)C(=O)c1cc([N+](=O)[O-])ccc1N1CCOCC1 | -14.1% | – | –
Cc1cc(S(=O)(=O)NC2CCCCC2)ccc1OCC(=O)NCc1cccnc1 | – | – | 3.26 µM [rising, partial curve]
CC1CCN(C(=O)CSc2ccc(-c3ccc4c(c3)OCCO4)nn2)CC1 | 20.5% | 5.17 µM [falling, single point] | 6.51 µM [rising, single point]
CCOc1ccc(N(C)Cc2cc(=O)oc3ccc(OCC)cc23)cc1 | -23.9% | 0.651 µM [rising, partial curve, poor fit] | –
O=C(CN(c1cccc(Cl)c1)S(=O)(=O)c1ccccc1)NN=C1CCCC1 | 2.04% | 0.411 µM [rising, full curve, poor fit] | –
CC(C)Oc1ccc(S(=O)(=O)N2CCCCC2)cc1NC(=O)CN1C(=O)NC(C)(c2ccccc2)C1=O (configuration not stated) | 0.232% | 35.5 µM [rising, single point] | –
CC(=C/c1ccccc1)/C=N/N1CCN(Cc2ccc(C)cc2)CC1 | -32.9% | 29.1 µM [falling, single point] | 29.1 µM [falling, single point]
Cc1nc2ccc(NC(=O)N(C)c3ccccc3)cc2s1 | 18.8% | 4.61 µM [rising, partial curve] | –

Structure (SMILES) | cell number change | AC50 [1] | AC50 [2]
COc1cccc(/C=C/C(=O)OCC(=O)NCc2ccc(Cl)cc2)c1 | 15.6% | 0.0291 µM [falling, full curve] | –
O=C(NCC1CCCO1)c1cc(-c2ccc(F)cc2)no1 (configuration not stated) | 7.37% | 29.1 µM [rising, single point] | –
O=c1[nH]c(SCc2ccccc2Cl)nc2[nH]ncc12 | -15.2% | – | –
C=CCn1c(SCn2nnc3ccccc3c2=O)nnc1-c1ccc(Cl)cc1 | – | 0.461 µM [rising, full curve] | 0.231 µM [rising, full curve, poor fit]
CC(OC(=O)c1ccccc1)C(=O)NCCC1=CCCCC1 (configuration not stated) | -27.1% | 4.61 µM [falling, single point] | –
Brc1ccc(-c2nn3c(Cc4ccccc4)nnc3s2)o1 | 39.5% | 0.366 µM [rising, full curve] | 0.291 µM [rising, full curve]
O=C(Nc1cccc(F)c1)Nc1ccc(Cl)cn1 | 15.5% | – | –
CSCCC(/C(O)=C(\C#N)c1nc2ccccc2[nH]1)N1C(=O)c2ccccc2C1=O (configuration not stated) | 6.2% | 5.17 µM [rising, single point] | –
CNC(=S)NNc1nncc2ccccc12 | -21.2% | 29.1 µM [falling, single point] | –
CCc1cc2c(NCCN3CCCCC3)ncnc2s1 | -62.9% | 0.00461 µM [falling, full curve, poor fit] | 32.6 µM [falling, single point]
CCOC(=O)c1ccc(NC2OC(=O)c3ccccc32)cc1 (configuration not stated) | – | – | 0.92 µM [rising, partial curve, poor fit]
Cc1ccc(S(=O)(=O)CCc2nnc(NC(=O)C3CCCCC3)s2)cc1 | 8.53% | – | –
COc1ccc(S(=O)(=O)NC2CCCCC2)cc1C | -12.5% | – | –
Nc1ccc(S(=O)(=O)Nc2nccc(/C=C/c3cccc(Br)c3)n2)cc1 | 42.9% | – | 23.1 µM [rising, single point]
CCOP(=O)(OCC)c1nc(-c2ccc(Cl)cc2)oc1NCc1ccccc1 | -53.7% | 32.6 µM [falling, single point] | –
N#CCc1c(C#N)c(N)nc(N2CCCC(CO)C2)c1C#N (configuration not stated) | -47.7% | – | 29.1 µM [falling, single point]
COc1cc(OC)cc(-n2nnnc2SCC(=O)N2CCCc3ccccc32)c1 | – | 6.51 µM [rising, single point] | –
COc1ccc(CN2C(=O)c3ccccc3C2=O)cc1C(=O)Nc1ccc(C)cc1C | 8.04% | 0.461 µM [rising, full curve] | –
O=C(c1ccccc1)C(CCC(CN1CCOCC1)C(=O)c1ccccc1)CN1CCOCC1 (configuration not stated) | -50.5% | 8.2 µM [falling, partial curve] | 8.2 µM [falling, partial curve]

Nothing new here: an excerpt of the list.
Structure (SMILES) | cell number change | AC50 [1] | AC50 [2]
CCCCCc1ccc(-c2cn(Cc3ccc([N+](=O)[O-])cc3)nn2)cc1 | – | 2.91 µM [rising, single point] | –
Cc1c(CCC(=O)NCC(=O)NCC(=O)O)c(=O)oc2cc3oc4c(c3cc12)CCCC4 | -17.1% | 29.1 µM [falling, single point] | –

Source: PubChem BioAssay AID2685 (National Center for Advancing Translational Sciences (NCATS), 2010)
